Experimental findings from patent publication US20260234227A1 are described below.

For the assay, the target named is T1, vasoactive intestinal peptide (VIP) (human).
T1 sequence (peptide): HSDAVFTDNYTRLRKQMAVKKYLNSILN
Put plainly: SPR (Biacore), captured antibody, 37.5 nM peptide injected at 37 C, relative response after 15 sec dissociation.

These are yes or no findings as the source states them, for the method shown. Some entries that bind do so weakly or less than the wild type.

B1: anti-PACAP antibody 890C (antibody, human IgG4 S228P, kappa, V domains shown)
VH: EVQLVQSGAEVKKPGSSVKVSCKASGGTFSDVYMHWVRQAPGQGLEWMGLIYPIFADTRYAQKFQGRVTITADESTSTAYMELSSLRSEDTAVYYCAIDQDGSFAYWGQGTLVTVSS
VL: DIVMTQSPDSLAVSLGERATINCKSSQSLLDADGKTYLNWLQQKPGQPPKRLIYWASTRESGVPDRFSGSGSGTDFTLTISSLQAEDVAVYYCWQGTWFDLTFGGGTKVEIKR
B1: the binding entry is given as “binds”.
